# Data taken from PubChem BioAssay AID1487 (National Center for Advancing Translational Sciences (NCATS), 2009).
# Among all 200,000 compounds or so, about 25 (0.01%) were called active. Inconclusive results, whose numbers are uncertain, are shown with a selection of clear calls. Calls come from the whole dose curve; as a rule, active = well fitted inhibition curve with a large enough effect in the signal ratio, with a control signal flat (not every such curve was filed as active); inconclusive = small, poorly fitted or top-dose-only effect, or effect the other way, or a change in a side signal; inactive = flat fitted curve, though single readings scatter; the % refers to the signal ratio. Potencies beside an inconclusive call are fits to weak or partial responses and may not hold up.
# Experiment: qHTS Assay for Modulators of Lamin A Splicing
# Details: HeLa LMNA splicing GFP/RFP minigene ratio, 48 h; ratio change, negative = inhibition: at 46.1 µM (top of the series) unless noted
# In short: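 Read-out is the ratio of GFP to DsRed2 object intensity, acquired by 488 nm laser-scanning cytometry on HeLa lamin A-EGFP minigene reporter cells. Compound incubation 48 hrs at 37 °C in Opti-MEM with 2% FBS; DMSO 0.5% final.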
# % is set by controls: 0 for no effect and ±100 for the full control effect; potency is the fitted concentration of half-maximal effect.
SMILES,"ratio change, negative = inhibition",Potency
C/C(=N/NC(=O)c1cccc(N2CCCC2=O)c1)c1ccncc1,inconclusive: 7.76% [at 46 µM],
CN(C)CCc1c[nH]c2ccc(CC3COC(=O)N3)cc12 (stereo not drawn),inconclusive: 15.7%,
CNS(=O)(=O)c1cccc(C(=O)Nc2cccnc2)c1,inactive: -3.57%,
Cc1ccc(S(=O)(=O)N2CCN(Cc3ccccc3)CC2)c(C)c1N(C)S(=O)(=O)c1ccccc1,,"inconclusive: 11.2 µM [fluorescent, partial curve]"
COc1ccc(N(CC(=O)N/N=C/c2ccco2)S(=O)(=O)c2ccccc2)cc1,inactive: -9.18%,
O=C(Nc1ccc2cn[nH]c2c1)c1ccc(S(=O)(=O)N2CCOCC2)cc1,inconclusive: 18.5% [at 46 µM],
COc1ccccc1NC(=O)CSc1nnc(COc2ccc(Cl)cc2)n1Cc1ccco1,inconclusive: 14.1%,
OCCCCNCc1ccc(OCc2ccccc2)cc1,inconclusive: -6.56%,
Cc1c(C)n(CC(O)CN2CCOCC2)c2ccccc12 (stereo not drawn),inactive: 0.911%,
Cc1cccc(CN2CCN([C@@H](c3ccccc3)c3ccc(Cl)cc3)CC2)c1,inactive: -13.8%,
O=C(CN1CCN(c2ccccn2)CC1)Nc1ccc(Cl)c(C(F)(F)F)c1,,"inconclusive: 35.5 µM [falling, single point]"
CC(=O)Nc1c(O)[nH]c2ccccc12,inactive: -5.2%,
COc1ccc2c(Cl)c(-c3nnco3)sc2c1,inconclusive: -2.68%,
Cc1ccc(S(=O)(=O)/N=S(/c2ccccc2)C(C)C)cc1 (stereo not drawn),inconclusive: -8.55% [at 46 µM],
Cc1cc2c(cc1S(=O)(=O)CCC(=O)N1CCCC(C)C1)OCC(=O)N2 (stereo not drawn),inconclusive: -10.2% [at 46 µM],
CCCCN(CCCNC(=O)c1ccc(Sc2ccc(Cl)cc2)c(NC(C)=O)c1)c1ccccc1,inconclusive: -16.8% [at 46 µM],
O=C(O)c1cccnc1C(=O)O,inactive: -4.45%,
O=C(O)CN1C(=O)/C(=C/C=C/c2ccccc2)SC1=S,inconclusive: 7.25% [at 46 µM],
COCCCNC(=O)c1cc(C(=O)Cc2ccccc2)c[nH]1,inconclusive: 11.9% [at 46 µM],
CCOC(=O)c1nnn(-c2nonc2N)c1COc1c(C=O)cccc1OC,inconclusive: 8.27%,
Cc1ccc(CNC(=O)c2ccc(CSCc3ccccc3Cl)o2)cc1,,"inconclusive: 28.2 µM [inhibitor, single point]"
CCOC(=O)Cn1c(=O)cc(C)c2ccccc21,inconclusive: -1.64% [at 46 µM],
CCOC(=O)N1CCN(c2cc3[nH]c(=S)[nH]c3cc2F)CC1,inactive: -7.45%,
Cc1ccc(S(=O)(=O)NCC(c2ccc(N(C)C)cc2)N2CCc3ccccc32)cc1C (stereo not drawn),inactive: -25.7% [at 46 µM],
Cc1ccc(Nc2nnc(SCC(=O)NC3CCCc4ccccc43)s2)cc1 (stereo not drawn),inactive: -17.4%,
CCOc1ccc2nc(Nc3nc4ccc(NC(C)=O)cc4s3)sc2c1,inconclusive: 8.76%,
N#Cc1cncc(-c2ccc3c(c2)OCCOCCOCCOCCOCCO3)n1,inconclusive: -2.14%,

# 2 compounds picked at random from the list so far, as already listed:
SMILES,"ratio change, negative = inhibition",Potency
O=C(Nc1ccc2cn[nH]c2c1)c1ccc(S(=O)(=O)N2CCOCC2)cc1,inconclusive: 18.5% [at 46 µM],
O=C(O)c1cccnc1C(=O)O,inactive: -4.45%,

# As a working copy, some entries already given.
SMILES,"ratio change, negative = inhibition",Potency
O=C(Nc1ccc2cn[nH]c2c1)c1ccc(S(=O)(=O)N2CCOCC2)cc1,inconclusive: 18.5% [at 46 µM],
COc1ccccc1NC(=O)CSc1nnc(COc2ccc(Cl)cc2)n1Cc1ccco1,inconclusive: 14.1%,

# (further entries)

SMILES,"ratio change, negative = inhibition",Potency
CCOc1cc(OCC)cc(C(=O)NCCCN2CCOCC2)c1,inconclusive: 24.6% [at 46 µM],
COc1ccc(-c2nn3c(-c4ccco4)nnc3s2)cc1OC,,"inconclusive: 11.2 µM [inhibitor, single point]"
CCOC(=O)C1CCN(C(=O)CN2c3ccc(C(C)C)cc3-c3ccccc3S2(=O)=O)CC1,inconclusive: 16.7% [at 46 µM],
O=C(O)c1ccc(-n2nc(C(F)(F)F)c3c2-c2ccoc2CC3)cc1,inactive: -10%,
CCc1cc(-c2n[nH]c(=S)n2CC)cs1,inconclusive: -0.611%,
COc1ccccc1OC(=O)Oc1ccccc1OC,inconclusive: 0.466%,
COC(=O)C1=C(C)Nc2nnnn2C1c1cccs1 (stereo not drawn),inactive: -1.43%,
CCC(=O)NCCC1CCc2ccc3c(c21)CCO3 (stereo not drawn),inconclusive: 9.17%,
CC(=O)N1N=C(c2ccc(NS(C)(=O)=O)cc2)CC1c1ccc2nccnc2c1 (stereo not drawn),inconclusive: 3.77% [at 46 µM],
Cc1cc[n+](-c2ccccc2)c2ccccc12,inactive: -8.93% [at 46 µM],
COc1ccc(Nc2nc3c(C)cccn3c(=O)c2C=NCc2ccccc2)cc1,inconclusive: -20.7% [at 46 µM],
COc1ccc(CCNC(=O)c2cc3sc(Cl)cc3n2C)cc1OC,,"inconclusive: 25.1 µM [falling, single point]"
CC(C)CC(=O)NC(=S)Nc1ccccc1F,inactive: 8.58%,
CC1(C)N=C(N)N=C(N)N1c1ccccc1,,"inconclusive: 22.4 µM [falling, single point]"
COCc1cc(C)nc(SCC(=O)c2ccc(O)c(O)c2)c1C#N,,"inconclusive: 35.5 µM [falling, single point]"
N#Cc1cccc(Nc2ncnc3c2cnn3-c2cccc(Cl)c2)c1,inconclusive: 64% [at 46 µM],
Cc1ccc(Cl)cc1-n1ncc2c(NC3CCCCC3)ncnc21,,"inconclusive: 0.0089 µM [inhibitor, full curve, poor fit]"
CC(=O)c1cc(-c2ccccc2)n(CCC(=O)NC2CCCCCCC2)c1C,inconclusive: -37.1%,
COc1ccc(CNC(=O)Cn2c(=O)nc(-c3ccccc3F)c3cc(Cl)ccc32)cc1OC,,"inconclusive: 11.2 µM [inhibitor, single point]"
O=C(CCN1C(=O)c2ccccc2C1=O)NCCCn1ccnc1,inconclusive: 42.7% [at 46 µM],
Cc1cc(/C=N/Nc2nc(N3CCOCC3)nc(N3CCOCC3)n2)c(C)n1-c1ccccc1,inconclusive: -6.07% [at 9.22 µM],
CC(C)(C)NC(=O)NC(=O)COC(=O)Cc1ccc(Cl)cc1Cl,inconclusive: -6.66% [at 46 µM],
CCc1ccc(-c2cc(C(=O)Nn3cnnc3)c3ccccc3n2)cc1,inactive: -0.382%,
CCc1ccc(NC(=O)CSc2nc3c(sc4ccccc43)c(=O)n2CCCOC)cc1,inconclusive: 9.01% [at 46 µM],
Cc1nn2c(C(F)(F)F)c3c(nc2c1-c1ccccc1)CCC3,,"inconclusive: 20 µM [activator, partial curve, poor fit]"
COc1ccc(N(CC(=O)NC2CCCC2)S(=O)(=O)c2c(C)[nH]c(=O)[nH]c2=O)cc1,inactive: 6.08%,
